PubChem BioAssay AID1508588 – Peter MacCallum Cancer Centre – 2020

Test: 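Knock-downs boosting vemurafenib effects on melanoma cell growth or lactate release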 (primary screen)
Cell system: human WM266.4 melanoma cells (BRAF V600 mutant)
Reagents: siRNA pool against human genes, 40 nM
Duration: 96 h from transfection to read-out
Challenge: vemurafenib 300 nM (about IC25), added 48 h after transfection, for 48 h; comparison arm got DMSO vehicle only
Detection: 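Ratios to non-targeting siRNA for cell gain, counted as DAPI nuclei after minus before drug and averaged over two replicates, and for absorbance-read medium lactate per cell; both binned into fold-change classes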
Reading the numbers: cell gain with vemurafenib: higher = more cell gain than with non-targeting siRNA; lactate per cell with vemurafenib: higher = more lactate made per cell
Call rule: 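a knock-down counts as enhancing when its fold-change classes with vehicle and with vemurafenib, taken together, show a stronger drug effect on cell gain or lactate per cell; exact class pairs not stated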
Meaning of the calls: active = enhances vemurafenib effect; inactive = no enhancement seen
Shown is one part, drawn at random, of about 18,000 reagents. In the full data, 790 (4.4%) got an active call. 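Calls rest on a combination of fold-change classes in drug and vehicle arms, not all shown here.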 Entries without a mark were called inactive.

ZNF354C [SID135622691] | cell gain with vemurafenib = 0.84; lactate per cell with vemurafenib = 1.03
TMEM215 [SID152148209] | cell gain with vemurafenib = 0.84; lactate per cell with vemurafenib = 0.92
CCT2 [SID152151325] | cell gain with vemurafenib = 0.48; lactate per cell with vemurafenib = 1.91
PSME1 [SID134316537] | cell gain with vemurafenib = 0.83; lactate per cell with vemurafenib = 1.1
AVIL [SID134316557] | cell gain with vemurafenib = 1.01; lactate per cell with vemurafenib = 0.58
MYOM3 [SID135623257] | cell gain with vemurafenib = 0.81; lactate per cell with vemurafenib = 1.08
VPS11 [SID152146953] | cell gain with vemurafenib = 0.21; lactate per cell with vemurafenib = 0.68
ZNF501 [SID135621319] | cell gain with vemurafenib = 0.79; lactate per cell with vemurafenib = 0.63
LIX1 [SID134322235] | cell gain with vemurafenib = 0.55; lactate per cell with vemurafenib = 0.44
YY2 [SID152155945] | cell gain with vemurafenib = 1.06; lactate per cell with vemurafenib = 0.65
NSD2 [SID134311890] | cell gain with vemurafenib = 0.97; lactate per cell with vemurafenib = 0.8
CACNA1B [SID134311541] | cell gain with vemurafenib = 0.47; lactate per cell with vemurafenib = 1.2
STOML1 [SID135621757] | cell gain with vemurafenib = 0.16; lactate per cell with vemurafenib = 3
ARHGEF39 [SID152146924] | cell gain with vemurafenib = 0.05; lactate per cell with vemurafenib = 1.66
TEFM [SID135622735] | cell gain with vemurafenib = 0.75; lactate per cell with vemurafenib = 0.57
FTSJ3 [SID134317595] | cell gain with vemurafenib = 0.76; lactate per cell with vemurafenib = 0.55

Quoted from the listing for reference:
VPS11 [SID152146953] | cell gain with vemurafenib = 0.21; lactate per cell with vemurafenib = 0.68
ZNF501 [SID135621319] | cell gain with vemurafenib = 0.79; lactate per cell with vemurafenib = 0.63
LIX1 [SID134322235] | cell gain with vemurafenib = 0.55; lactate per cell with vemurafenib = 0.44
